Results of single-concentration screens

Mtb cholesterol medium: 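Whole-cell growth test on Mycobacterium tuberculosis, read after 4 days in a medium based on cholesterol and the lipid DPPC; the read-out is not stated. Compounds at 50 µM. Direction is inferred from retests: higher values go with more growth inhibition. Size under these conditions: about 69,000 compounds, about 370 of them at 50% or above in at least one test.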
Mtb glucose medium: 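Growth of Mycobacterium tuberculosis over 3 days (7H9 medium with glucose and tyloxapol); the read-out is not stated. Tested at 50 µM. Direction is inferred from retests: higher values go with more growth inhibition. Size under these conditions: about 69,000 compounds, about 760 of them at 50% or above in at least one test.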

The filed quantity is “Percent Effect” (%). The controls that fix the scale are not given in the record; negative values are as filed. Compounds were drawn at random from those tested, without regard to their results. Two or more numbers in one place are separate tests of the same structure; such repeats can differ widely.

compound | Mtb cholesterol medium | Mtb glucose medium
[H][C@]12CC[C@]([H])(CN(C(=O)CCc3n[nH]c(C)n3)C1)N(CC=C(C)C)C2 | -12.1 | -11.23 & -33.07
Cc1nn(CCN2CCSCC2)cc1CNCc1ccccn1 | -35.02 | -13.94
COCc1nnc(C(=O)N(C)Cc2cnc3ccccn23)o1 | -12.29 | 5.416
O=c1cc2c(nn1CN1CCC(c3ccccc3)CC1)CCC2 | -23.15 | -18.89
Cc1ccc([C@@H]2CN(C(=O)c3ccccc3C)C[C@H]2N(C)C)cc1 | -4.115 | -7.199
COCCC1(CO)CCCN(CCCc2ccccc2)C1 (configuration not stated) | -3.458 & -2.787 | 5.402
[H][C@]12CC[C@]([H])(CN(C(=O)CSc3ccncc3)C1)N(CC=C(C)C)C2 | 15.59 | -42.46 & -1.667
CSCc1noc(Cn2ncn3cccc3c2=O)n1 | -20.24 | -20.9
CNC(=O)CCS(=O)(=O)Cc1coc(-c2ccc(F)cc2)n1 | 3.504 | 15.76 & -0.5017
Cn1cc(CN2CCC[C@]3(C[C@H](Oc4ccccn4)CO3)C2)cn1 | 11.99 | 8.805
CC(C)CCn1cc(C(C(=O)O)N2CCCN(C3CCCC3)CC2)cn1 (configuration not stated) | -2.466 | -0.183 & 18.14
Cc1cccc(C2CCCN(C(=O)CN3CCOC3=O)C2)c1 (configuration not stated) | -1.242 | 6.22
CCOc1ccc(NC(=O)c2cnc(N3CCCC3)nc2C)cc1 | 3.323 | 8.834
COCCNC(=O)N1CCN(C(=O)Cc2ccccc2F)CC1 | -26.46 | -17.16
CC(C)(O)CCc1cccc(C(=O)N[C@H](C(N)=O)c2ccccc2)c1 | 12.34 | -3.612 & -15.49
Cc1[nH]ccc1C(=O)N1CCC2(CC1)c1nc[nH]c1CCN2S(C)(=O)=O | -1.592 & -12.4 | 2.141
CN(C)C(CNC(=O)NCCc1cccc(O)c1)c1ccco1 (configuration not stated) | 22.53 | 38.91
CC(C)(C)C(=O)N1CCCc2c(cnn2-c2ccccc2)C1 | 7.4 | 13.81
Cc1cc(CN2CCC3(CC2)COC(COc2ccccn2)C3)no1 (configuration not stated) | 2.566 | -7.078
CCn1c(CNC(=O)c2ccc(N(C)C)nc2)nc2ccccc21 | 3.666 | 14.74
O=C(CCc1ccsc1)N(Cc1ccccn1)C1CC1 | -9.517 | -4.761
Fc1ccc(Nc2ccc(C3CCN(Cc4ncc[nH]4)CC3)nc2)nc1 | 6.474 & 15.36 | 19.89
CCOc1cccc2c1OCC(=O)N(c1ccc3c(c1)OCO3)C2 | -17.49 | -33.85
O=C(Nc1c(N2CCCC2)cccc1N1CCCC1)c1ccccn1 | 28.67 | 33.95
CCn1ncc(CN2CCN(C(=O)Cn3cc(Br)c(C)n3)CC2)c1C | -1.91 | 7.862
CN(C)CCN1C(=O)CCCC12CCCN(Cc1ccc[nH]1)C2 (configuration not stated) | -4.659 | -33.21
CC(C)N(C)C(=O)C1CSCN1S(=O)(=O)c1ccccc1F (configuration not stated) | 2.729 | -6.991
CCc1nc(C)c([C@H]2CN(C)C[C@@H]2C(=O)Nc2ccc(OC)nc2)[nH]1 | -4.171 | 29.46
[H][C@@]12CCN(C[C@@H]1c1cc(-c3cccs3)nn1C)[C@@H](CNC(=O)COC)C2 | -3.082 | 7.386 & 5.615
CC(C)OCCC(=O)N1CCN(CC(O)c2ccccc2)CC1 (configuration not stated) | -12.43 | -6.027
CCC(NC(=O)c1ccc(OC)nn1)c1nc(C(F)(F)F)cs1 (configuration not stated) | -6.932 | 6.948 & -10.9
Cc1ccc2c(c1)CN(C(=O)c1cccs1)C(CN(C)C)CO2 (configuration not stated) | 10.34 | 23.33
O=C(O)CC(O)(CC(=O)O)C(=O)O.OC1CCCN(Cc2ccnc(-c3cccnc3)n2)C1 (configuration not stated) | -9.841 | 30.88
COc1ccc(N)c(N2CCN(C(C)=O)CC2)n1 | -0.3581 | -8.583 & -20.23
Cc1nc2sccn2c1CN(CCCN(C)C)Cc1ccco1.O=C(O)CC(O)(CC(=O)O)C(=O)O | -8.784 & 0.849 | -13.49
CC(=O)N(Cc1ncc(C(C)C)o1)C1CCN(CCn2cncn2)C1 (configuration not stated) | 4.078 | 3.893
[H][C@]12CC[C@]([H])(CN(C)C1)N(Cc1ccccc1OCCN1CCOCC1)C2 | -2.75 | -16.48 & 6.792
CN(Cc1ccc([S+](C)[O-])cc1)c1cncc(Br)c1 (configuration not stated) | 8.143 | 10.83
CCc1noc(CN2CCCN(Cc3cccs3)CC2)n1 | -17.74 | -13.58
CCCC(NC(=O)c1ccc(C)cc1C)c1nnn[nH]1 (configuration not stated) | 12.2 & -10.76 | 28.12
Cc1nc(CC(=O)N2CCCCC2Cn2cccn2)cs1 (configuration not stated) | -24.71 | -31.16
COCCCNS(=O)(=O)c1cc(Br)sc1C | 13.84 | 15.58
Cc1ccc(CN2CCCn3c(nc(Cn4ccnc4)cc3=O)C2)s1 | -13.65 | -0.1922
COc1cc(N2CCC(c3nccn3Cc3ccccc3)CC2)ncn1 | 8.396 | -18.67
CC(=O)Nc1ccc(OCc2noc(C(=O)N3CCCC3)n2)cc1 | -20.83 | -9.681
CCc1nnc2n1CCN(Cc1csc(Cc3ccccc3)n1)C2 | -8.351 | -2.921 & -26.91
CCn1c(CN(C)C)nnc1C1CCN(Cc2cccc(C#N)c2)CC1 | -7.81 & -9.537 | -3.188
C[C@@H]1CN(C(=O)C2(N3CCCCC3)Cc3ccccc3C2)C[C@H](C)O1 | -6.828 | 7.135 & 15.05
COCc1cc(N(C)CCC(O)c2ccccc2)n2nccc2n1 (configuration not stated) | 22.94 | -14.55
CC(C)c1nc2n(n1)CC(Nc1ncnc3ccccc13)CC2 (configuration not stated) | 0.3751 | 2.899
CC(C)Cc1noc(-c2ccc(NCc3noc(C(C)C)n3)nc2)n1 | 6.974 | 9.258 & 12.78
CCc1nnc2n1CCN(C(=O)c1ccc3c(c1)[nH]c(=O)n3C)C2 | 13.16 | 1.466
N#Cc1c[nH]c(C(=O)N(Cc2ccc(O)cc2)CC2CC2)c1 | -3.49 | -2.975 & 9.62
Clc1ccccc1Cn1cc(CNC2CCc3ncnn3C2)cn1 (configuration not stated) | -12.67 | -9.88
Cc1noc(C(C)C)c1C(=O)NCc1ccc2c(c1)OCCO2 | 8.808 | 2.519
COc1ccc(CN2CCc3[nH]nc(C(=O)N(C)C)c3C2)cc1.O=C(O)C(F)(F)F | 2.934 | 2.086
Cc1c(Cl)cccc1S(=O)(=O)NCc1cnc(N(C)C)n1C | 7.977 | -0.4231 & 0.624

Repeated from the top, 5 entries:

compound	Mtb cholesterol medium	Mtb glucose medium
[H][C@]12CC[C@]([H])(CN(C(=O)CCc3n[nH]c(C)n3)C1)N(CC=C(C)C)C2	-12.1	-11.23 & -33.07
Cc1nn(CCN2CCSCC2)cc1CNCc1ccccn1	-35.02	-13.94
COCc1nnc(C(=O)N(C)Cc2cnc3ccccn23)o1	-12.29	5.416
O=c1cc2c(nn1CN1CCC(c3ccccc3)CC1)CCC2	-23.15	-18.89
Cc1ccc([C@@H]2CN(C(=O)c3ccccc3C)C[C@H]2N(C)C)cc1	-4.115	-7.199

Source: ChEMBL document CHEMBL3988442, “University of Dundee, Small-Polar-MMV Screening Library” (2021).